## Percent effect of library compounds

Chains of the proteins cited; added tags and fusions are not shown.
UniProt P9WPC5, whole entry: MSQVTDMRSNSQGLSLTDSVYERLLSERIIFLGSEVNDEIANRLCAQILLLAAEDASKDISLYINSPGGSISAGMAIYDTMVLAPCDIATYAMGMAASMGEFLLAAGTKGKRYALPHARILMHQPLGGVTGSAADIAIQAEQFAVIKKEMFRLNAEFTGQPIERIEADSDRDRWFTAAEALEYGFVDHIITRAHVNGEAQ
UniProt P9WPC3, whole entry partner: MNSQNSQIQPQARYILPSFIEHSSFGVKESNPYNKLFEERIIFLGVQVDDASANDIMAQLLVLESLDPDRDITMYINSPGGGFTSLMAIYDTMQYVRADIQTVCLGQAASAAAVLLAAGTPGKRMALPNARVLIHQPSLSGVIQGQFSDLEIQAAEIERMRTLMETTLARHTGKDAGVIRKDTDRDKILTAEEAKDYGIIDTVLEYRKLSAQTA

Each number is a percent effect as filed. How 0% and 100% were set is not recorded. Most values in the screen are low, and negative values occur. This is an unselected part of the compounds tested. A dash means the value is not listed here; it may have been measured.

A: 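Assay of Toxoplasma gondii numbers, read through their beta-galactosidase reporter with a colour substrate. Tested at 10 µM. The record gives no direction; the compounds picked for IC50 retests had high values, so higher reads as fewer parasites. About 67,000 compounds were tested under these conditions; 0.38% (about 260) showed 50% or more at least once.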
B: 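Protease assay of ClpP1P2, read by the AMC dye that it sets free. Target: ClpP1P2, Mycobacterium tuberculosis (UniProt P9WPC5 and UniProt P9WPC3). Concentration: 50 µM. Higher reads as stronger inhibition, judged from the few compounds that gave an IC50. Most other retested compounds had strongly negative values. Of about 69,000 compounds tested this way, about 10 (0.015%) reached 50% or more in at least one test.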

compound,A,B
Cc1nc2ccccn2c1CN(Cc1cccnc1)CC1CCCO1 (centres undefined),-1.423,-15.25
CCOCCN1Cc2ncn(C)c2C(COCC2CCOCC2)C1.O=C(O)C(F)(F)F.O=C(O)C(F)(F)F (centres undefined),-1.916,-
[H][C@]12CC[C@]([H])(CN(S(C)(=O)=O)C1)N(Cc1cscn1)C2=O,10.34,-
O=C(O)CCn1ccc(=O)c2cc(F)ccc21,-26.54,-3.482
Cc1nonc1CC(=O)N1CCC2(CCCN(C3CCOCC3)C2=O)C1 (centres undefined),-8.818,12.43
Cc1cc(CNC(=O)Nc2cc(F)cc(N3CCCC3)c2)no1,-4.388,-9.759
c1cnn(CCNCCCOc2ccc3c(c2)OCO3)c1,5.513,-5.017
CC(C)c1ccc(CNC(c2ccc(F)cn2)C(C)C)cc1 (centres undefined),4.748,-5.706
O=C1NCCCCC1Sc1ccccc1F (centres undefined),-,1.293
CC(c1cccnc1)N(C)S(C)(=O)=O (centres undefined),-4.019,-13.96
CC(NC(=O)NCc1ccccn1)c1ccc2c(c1)CCC(=O)N2 (centres undefined),10.92,-17.65
O=C(c1ccoc1)N1CCC2(CCCN(c3ncc(F)cn3)C2)C1 (centres undefined),-111.2,-25.93
[H][C@@]12CS(=O)(=O)C[C@]1([H])N(C(=O)c1[nH]c3ccccc3c1CC)CCN2C,4.06,-
CCN(c1ccc(C(=O)NCc2ccnc(C)n2)cc1)C(C)C,3.407,1.455
CN(C)S(=O)(=O)N1C[C@@H]2CC[C@H](C1)N(Cc1ccc(F)c(F)c1)C2,-,-2.436
CCc1nccn1C1CCCN(C(=O)c2ccnc(C)n2)C1 (centres undefined),2.469,-6.598
CCOc1ccc(Cl)c(C(=O)N2CCN(C(=O)OC)CC2)n1,13.03,4.329
O=C(CCN1CCNCC1)N1CCC2(CC1)c1ccccc1CC2O (centres undefined),-3.244,-6.448
CCCC(C)NCc1cccnc1N1CCN(c2ccccn2)CC1 (centres undefined),-2.622,3.043
c1cnc2nc(N3CCc4c(ncn4C4CC4)C3)ccc2n1,4.77,-25.96
O=C(CC1CC1)N1CC[C@H]2OCC[C@@]2(COc2ncccc2F)C1,-,-0.6547
CCCn1nnnc1CN(c1ccc(N2CCOCC2)cc1)C(C)C,-1.735,0.1018
Cc1ccc(C(=O)N(Cc2cccnc2)C[C@@H]2CCC(=O)N2)s1,-4.452,-0.6928
COc1ccc(OC)c(-n2cnnc2COC(C)C)c1,-8.487,3.539
CC(CC#N)N(C)Cc1ccc(F)cc1C#N (centres undefined),0.3447,-27.22
COc1nn(C)cc1C(=O)NCC(=O)NCc1cccnc1,-7.851,-10.73
CCNC(=O)NC(=O)CN1CCC(c2cccc(F)c2)C1 (centres undefined),-27.44,-28.86
Cc1cc(NCc2cc3n(n2)CCCN(C(=O)C2CCC2)C3)ncn1,-24.27,-3.873
O=C(CNc1cccc(S(=O)(=O)C(F)F)c1)NCc1ccco1,2.949,3.874
Cc1ccc(NC2CCN(C(=O)CCn3nc(C)cc3C)CC2)nn1,-20.3,-34.76
Cc1nc(-c2nc(C(=O)NC3CC3)c3ccccn23)cn1C(C)C,-3.899,-453
CCOC1CC2(CCN(C(=O)Cc3ccccn3)CC2)C1,-,-2.305
COc1cccc2[nH]c(C(=O)N3CCNCC3C(N)=O)cc12.Cl (centres undefined),-0.03639,-
Cc1ccc(-c2ccnc(NCC(O)c3ccc(O)cc3)n2)c(C)n1 (centres undefined),11.79,3.48
Fc1ccccc1CN1C[C@@H]2OCCN(c3ncccn3)[C@@H]2C1,-,-4.933
CN1C(=O)C2(CC(=O)Nc3[nH]ncc32)c2ccc(F)cc21 (centres undefined),-32.51,-16.2
Cc1ccsc1-c1nnc(SCC(=O)O)n1C(C)c1ccccc1 (centres undefined),5.485,-13.06
Cc1csc(N2CCN(CCc3ccccn3)CC2C)n1 (centres undefined),-2.299,-6.779
CC(C)CN1CCC(C(=O)Nc2cc(C(F)(F)F)c[nH]c2=O)CC1,6.564,6.709
c1ccc2cc(OCCN3CCn4c(nnc4C4CC4)C3)ccc2c1,13.24,-7.611
CCS(=O)(=O)CCN(C)Cc1cc(C)ccc1OC,11,8.237
CCC(=O)N1CCC(n2cc(C(C)(C)O)nn2)CC1,-16.08,-16
CCOc1ncnc2c1CCN(S(=O)(=O)CC)CC2,-1.386,1.21
COc1cnc(N2CC(N3CCOCC3)C2)nc1-c1ccnn1C,9.435,-378.2
COCC(=O)NC1CC2(CCN(CC3CC3)CC2)Oc2ccccc21 (centres undefined),-,16.41
OCC1CCCN1c1cc(NCCc2ccccn2)ncn1 (centres undefined),-21.35,6.013
CC/C=C(/C)C(=O)N1CCN(C2=NCC(C)S2)CC1 (centres undefined),-6.714,9.757
COCC1CC2(CCN(Cc3cccnc3)CC2)CN1c1ncccn1 (centres undefined),-,-17.42
COCC(=O)N1CCC(c2cc3ncccc3c(O)n2)CC1,12.2,-21.97

Some entries from above, unchanged:

{"compound": "Cc1nc(-c2nc(C(=O)NC3CC3)c3ccccn23)cn1C(C)C", "A": -3.899, "B": -453}
{"compound": "CC(NC(=O)NCc1ccccn1)c1ccc2c(c1)CCC(=O)N2", "stereo": "centres undefined", "A": 10.92, "B": -17.65}
{"compound": "COc1cccc2[nH]c(C(=O)N3CCNCC3C(N)=O)cc12.Cl", "stereo": "centres undefined", "A": -0.03639}
{"compound": "COc1ccc(OC)c(-n2cnnc2COC(C)C)c1", "A": -8.487, "B": 3.539}

Data taken from ChEMBL document CHEMBL3988442, “University of Dundee, Small-Polar-MMV Screening Library” (2021).